Experimental data: the supplement of paper PMC10849652
The list shows a part of the results.

The chains behind the UniProt entries cited, without tags or fusion partners. Where a name states a change or a piece, a line headed by the entry shows the natural chain unless it says otherwise.
UniProt Q9UPV0, whole entry, looked up: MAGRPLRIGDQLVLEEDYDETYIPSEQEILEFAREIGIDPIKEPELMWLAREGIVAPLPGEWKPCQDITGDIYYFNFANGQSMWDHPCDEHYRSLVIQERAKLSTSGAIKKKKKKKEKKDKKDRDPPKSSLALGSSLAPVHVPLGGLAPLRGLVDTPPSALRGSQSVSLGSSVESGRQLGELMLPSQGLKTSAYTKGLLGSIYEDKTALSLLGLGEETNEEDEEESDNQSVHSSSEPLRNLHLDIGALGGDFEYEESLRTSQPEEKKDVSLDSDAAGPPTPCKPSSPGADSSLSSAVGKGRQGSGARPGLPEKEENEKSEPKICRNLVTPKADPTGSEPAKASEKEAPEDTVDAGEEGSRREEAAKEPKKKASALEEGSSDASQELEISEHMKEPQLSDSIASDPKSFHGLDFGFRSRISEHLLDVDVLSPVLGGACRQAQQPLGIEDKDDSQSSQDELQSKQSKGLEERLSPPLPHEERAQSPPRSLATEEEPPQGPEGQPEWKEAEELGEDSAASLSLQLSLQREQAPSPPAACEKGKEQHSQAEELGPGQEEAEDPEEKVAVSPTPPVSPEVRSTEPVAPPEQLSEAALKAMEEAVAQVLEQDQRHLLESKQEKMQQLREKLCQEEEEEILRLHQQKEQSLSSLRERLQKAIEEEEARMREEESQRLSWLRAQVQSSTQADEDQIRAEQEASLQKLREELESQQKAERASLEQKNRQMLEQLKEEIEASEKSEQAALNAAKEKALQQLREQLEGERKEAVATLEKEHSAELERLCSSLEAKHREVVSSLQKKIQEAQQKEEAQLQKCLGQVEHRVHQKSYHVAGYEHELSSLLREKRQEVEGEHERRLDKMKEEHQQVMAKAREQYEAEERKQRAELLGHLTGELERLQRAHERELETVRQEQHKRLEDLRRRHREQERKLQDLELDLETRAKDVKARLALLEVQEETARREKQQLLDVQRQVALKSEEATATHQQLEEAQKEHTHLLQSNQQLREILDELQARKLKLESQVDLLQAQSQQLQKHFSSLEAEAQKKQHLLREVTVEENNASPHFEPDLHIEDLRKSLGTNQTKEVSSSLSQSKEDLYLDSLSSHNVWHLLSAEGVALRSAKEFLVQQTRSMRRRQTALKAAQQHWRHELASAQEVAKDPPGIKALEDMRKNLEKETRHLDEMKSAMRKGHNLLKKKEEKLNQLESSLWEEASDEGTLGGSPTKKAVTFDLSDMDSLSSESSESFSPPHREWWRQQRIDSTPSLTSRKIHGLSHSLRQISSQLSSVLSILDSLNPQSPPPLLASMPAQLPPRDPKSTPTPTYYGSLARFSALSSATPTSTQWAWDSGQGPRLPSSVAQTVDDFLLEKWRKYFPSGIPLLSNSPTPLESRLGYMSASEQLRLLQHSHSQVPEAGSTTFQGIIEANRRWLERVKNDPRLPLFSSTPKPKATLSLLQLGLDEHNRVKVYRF
UniProt Q7Z7K6: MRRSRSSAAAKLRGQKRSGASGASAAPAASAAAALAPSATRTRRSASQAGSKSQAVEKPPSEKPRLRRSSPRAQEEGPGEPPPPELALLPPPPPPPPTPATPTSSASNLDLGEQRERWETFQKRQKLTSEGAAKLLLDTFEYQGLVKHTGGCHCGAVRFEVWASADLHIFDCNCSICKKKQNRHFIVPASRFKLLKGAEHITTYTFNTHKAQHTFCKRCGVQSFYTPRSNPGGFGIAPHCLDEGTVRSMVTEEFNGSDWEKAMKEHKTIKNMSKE
UniProt Q8N5B7: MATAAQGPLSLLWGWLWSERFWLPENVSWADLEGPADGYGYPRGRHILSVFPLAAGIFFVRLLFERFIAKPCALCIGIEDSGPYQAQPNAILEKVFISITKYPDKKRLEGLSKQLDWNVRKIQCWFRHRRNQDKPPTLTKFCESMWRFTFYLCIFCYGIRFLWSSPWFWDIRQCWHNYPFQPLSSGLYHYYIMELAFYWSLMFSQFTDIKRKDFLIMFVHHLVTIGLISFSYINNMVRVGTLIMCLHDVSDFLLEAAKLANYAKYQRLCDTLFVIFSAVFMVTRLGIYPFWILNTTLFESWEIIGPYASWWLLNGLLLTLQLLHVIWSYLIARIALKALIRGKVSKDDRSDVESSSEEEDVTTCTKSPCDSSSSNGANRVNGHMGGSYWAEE
UniProt Q76N32: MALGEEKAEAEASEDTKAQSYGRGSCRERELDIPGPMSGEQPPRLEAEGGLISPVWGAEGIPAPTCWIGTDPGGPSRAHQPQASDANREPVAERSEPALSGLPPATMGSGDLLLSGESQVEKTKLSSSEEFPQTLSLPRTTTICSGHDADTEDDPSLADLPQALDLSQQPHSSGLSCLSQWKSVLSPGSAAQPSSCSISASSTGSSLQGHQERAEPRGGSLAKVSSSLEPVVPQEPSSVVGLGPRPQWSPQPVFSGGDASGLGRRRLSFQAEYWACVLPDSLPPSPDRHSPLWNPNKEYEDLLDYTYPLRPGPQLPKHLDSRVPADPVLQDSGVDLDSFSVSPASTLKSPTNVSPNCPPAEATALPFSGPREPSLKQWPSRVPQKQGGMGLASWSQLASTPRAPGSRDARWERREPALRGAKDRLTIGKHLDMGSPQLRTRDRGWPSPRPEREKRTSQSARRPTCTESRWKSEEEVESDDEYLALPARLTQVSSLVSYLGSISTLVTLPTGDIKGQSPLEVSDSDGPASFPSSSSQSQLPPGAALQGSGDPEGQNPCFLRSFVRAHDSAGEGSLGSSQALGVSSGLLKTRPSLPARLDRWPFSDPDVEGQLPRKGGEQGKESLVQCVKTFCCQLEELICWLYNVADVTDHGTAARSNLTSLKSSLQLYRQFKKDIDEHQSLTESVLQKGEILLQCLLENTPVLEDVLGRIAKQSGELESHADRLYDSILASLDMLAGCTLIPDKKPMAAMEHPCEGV
UniProt A8MT69: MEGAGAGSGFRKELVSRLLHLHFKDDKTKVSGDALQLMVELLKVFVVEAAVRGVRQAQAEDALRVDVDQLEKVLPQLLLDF
UniProt O60308: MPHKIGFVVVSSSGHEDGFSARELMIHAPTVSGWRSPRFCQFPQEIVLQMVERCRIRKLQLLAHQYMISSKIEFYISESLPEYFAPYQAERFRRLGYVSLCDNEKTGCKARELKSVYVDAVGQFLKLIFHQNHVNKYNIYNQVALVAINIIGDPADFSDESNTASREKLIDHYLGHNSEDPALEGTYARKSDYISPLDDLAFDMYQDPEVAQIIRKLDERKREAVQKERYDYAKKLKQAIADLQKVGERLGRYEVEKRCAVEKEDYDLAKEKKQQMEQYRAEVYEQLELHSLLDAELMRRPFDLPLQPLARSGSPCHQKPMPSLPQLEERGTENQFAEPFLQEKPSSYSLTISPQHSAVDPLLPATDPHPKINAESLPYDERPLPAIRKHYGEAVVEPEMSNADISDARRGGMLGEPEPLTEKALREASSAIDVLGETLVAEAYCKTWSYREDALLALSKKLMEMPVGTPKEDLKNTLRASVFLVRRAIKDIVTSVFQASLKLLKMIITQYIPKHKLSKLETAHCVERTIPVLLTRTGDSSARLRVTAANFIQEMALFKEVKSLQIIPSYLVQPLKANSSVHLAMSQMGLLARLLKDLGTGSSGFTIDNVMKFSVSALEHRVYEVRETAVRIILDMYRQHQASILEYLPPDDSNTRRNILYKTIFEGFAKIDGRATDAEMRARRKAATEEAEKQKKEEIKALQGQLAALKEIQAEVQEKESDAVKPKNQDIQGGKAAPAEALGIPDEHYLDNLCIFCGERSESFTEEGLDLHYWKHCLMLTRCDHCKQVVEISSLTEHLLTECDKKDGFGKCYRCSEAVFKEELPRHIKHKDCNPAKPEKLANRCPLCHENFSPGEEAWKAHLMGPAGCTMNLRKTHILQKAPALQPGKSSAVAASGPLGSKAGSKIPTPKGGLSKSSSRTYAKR
UniProt O15519, whole entry, looked up: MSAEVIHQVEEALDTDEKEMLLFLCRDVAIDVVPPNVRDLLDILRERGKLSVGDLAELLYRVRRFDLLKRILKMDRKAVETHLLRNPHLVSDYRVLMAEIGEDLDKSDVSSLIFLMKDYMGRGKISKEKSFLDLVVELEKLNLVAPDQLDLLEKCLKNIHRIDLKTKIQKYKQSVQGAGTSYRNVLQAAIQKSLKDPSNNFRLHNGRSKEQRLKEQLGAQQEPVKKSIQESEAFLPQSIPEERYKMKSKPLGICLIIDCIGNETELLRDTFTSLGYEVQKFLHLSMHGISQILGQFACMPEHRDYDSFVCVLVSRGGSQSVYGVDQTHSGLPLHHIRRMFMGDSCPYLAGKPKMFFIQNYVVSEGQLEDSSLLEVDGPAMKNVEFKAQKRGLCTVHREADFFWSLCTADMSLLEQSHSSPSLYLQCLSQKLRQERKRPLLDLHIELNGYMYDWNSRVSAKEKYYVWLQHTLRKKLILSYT
UniProt Q9Y4F5: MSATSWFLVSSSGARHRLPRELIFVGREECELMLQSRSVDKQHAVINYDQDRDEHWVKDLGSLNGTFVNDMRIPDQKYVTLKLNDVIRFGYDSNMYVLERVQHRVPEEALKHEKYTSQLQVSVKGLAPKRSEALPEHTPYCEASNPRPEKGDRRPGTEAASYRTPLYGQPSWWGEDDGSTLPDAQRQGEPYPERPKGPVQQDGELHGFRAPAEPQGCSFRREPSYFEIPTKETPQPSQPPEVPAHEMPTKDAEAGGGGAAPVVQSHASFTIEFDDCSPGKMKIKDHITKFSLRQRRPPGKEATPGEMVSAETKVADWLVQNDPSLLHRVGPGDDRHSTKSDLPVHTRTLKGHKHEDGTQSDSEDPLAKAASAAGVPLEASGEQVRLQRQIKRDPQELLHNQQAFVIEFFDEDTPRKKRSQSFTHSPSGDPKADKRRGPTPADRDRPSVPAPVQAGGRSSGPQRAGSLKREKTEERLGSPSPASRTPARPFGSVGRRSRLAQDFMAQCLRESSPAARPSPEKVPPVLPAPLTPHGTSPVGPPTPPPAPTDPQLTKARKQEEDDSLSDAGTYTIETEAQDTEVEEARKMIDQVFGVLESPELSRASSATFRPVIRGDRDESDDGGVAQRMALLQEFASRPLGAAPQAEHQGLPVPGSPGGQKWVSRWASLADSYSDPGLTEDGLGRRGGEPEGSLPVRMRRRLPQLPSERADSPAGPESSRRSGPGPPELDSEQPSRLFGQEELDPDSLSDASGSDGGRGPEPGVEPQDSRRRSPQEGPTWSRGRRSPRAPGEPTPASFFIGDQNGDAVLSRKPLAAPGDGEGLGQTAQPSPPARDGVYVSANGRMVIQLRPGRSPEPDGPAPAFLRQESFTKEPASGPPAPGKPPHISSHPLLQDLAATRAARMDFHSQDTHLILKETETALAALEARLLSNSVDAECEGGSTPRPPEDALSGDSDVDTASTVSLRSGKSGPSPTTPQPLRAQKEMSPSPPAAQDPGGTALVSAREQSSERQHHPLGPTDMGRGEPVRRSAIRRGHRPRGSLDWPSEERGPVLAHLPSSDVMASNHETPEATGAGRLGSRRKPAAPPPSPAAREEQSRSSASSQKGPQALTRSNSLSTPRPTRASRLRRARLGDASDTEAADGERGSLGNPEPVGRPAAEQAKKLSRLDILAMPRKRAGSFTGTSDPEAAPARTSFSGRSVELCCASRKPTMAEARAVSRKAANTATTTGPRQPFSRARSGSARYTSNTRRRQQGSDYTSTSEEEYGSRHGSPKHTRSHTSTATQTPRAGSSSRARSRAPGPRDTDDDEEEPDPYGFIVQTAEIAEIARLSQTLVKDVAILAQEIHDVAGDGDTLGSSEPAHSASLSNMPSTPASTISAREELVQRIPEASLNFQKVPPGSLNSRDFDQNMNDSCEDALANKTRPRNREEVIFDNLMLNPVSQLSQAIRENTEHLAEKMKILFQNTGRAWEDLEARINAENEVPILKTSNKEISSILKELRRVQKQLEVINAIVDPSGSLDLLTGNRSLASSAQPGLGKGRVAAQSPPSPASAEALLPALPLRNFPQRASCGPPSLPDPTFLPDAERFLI
UniProt Q99741: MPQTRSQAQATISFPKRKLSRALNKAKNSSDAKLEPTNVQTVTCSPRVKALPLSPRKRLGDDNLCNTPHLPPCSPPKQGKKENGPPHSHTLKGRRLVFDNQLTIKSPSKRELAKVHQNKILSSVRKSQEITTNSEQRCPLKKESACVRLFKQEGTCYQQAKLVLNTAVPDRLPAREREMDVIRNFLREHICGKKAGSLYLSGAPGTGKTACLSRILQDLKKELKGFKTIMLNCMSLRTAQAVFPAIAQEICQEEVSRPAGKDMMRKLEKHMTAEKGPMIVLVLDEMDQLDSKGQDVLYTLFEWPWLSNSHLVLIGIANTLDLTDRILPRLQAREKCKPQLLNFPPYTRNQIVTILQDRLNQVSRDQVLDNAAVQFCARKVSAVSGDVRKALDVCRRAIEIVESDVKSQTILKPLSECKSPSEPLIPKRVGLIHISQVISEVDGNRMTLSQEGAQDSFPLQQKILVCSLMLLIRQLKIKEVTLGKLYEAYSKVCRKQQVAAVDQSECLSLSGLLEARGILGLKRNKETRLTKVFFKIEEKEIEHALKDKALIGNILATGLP

How the values were obtained:
Experiment in all cases: log2 fold change, soluble protein after heating vs DMSO (PISA); higher = thermal stabilisation; K562 lysate, 10 uM; active = over 0.2 and 3.5 SD of the protein, either way, in both replicates (recomputed)
erlotinib = compound: C#Cc1cccc(Nc2ncnc3cc(OCCOC)c(OCCOC)cc23)c1 [erlotinib]
How it was run: (§1)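 Thermal stability, expressed as log-two fold change relative to solvent controls, is given from duplicates. Crude K562 extract in PBS pH 7.4 with 1 mM MgCl2, at 1 mg/mL protein, was treated with 10 μM compound for 30 min and heated in aliquots for 3 min across 48°C-58°C. After pooling, adjustment to 0.5% NP-40 at 4°C and centrifugation at 21,000xg for 90 min, supernatant protein was measured by TMTpro 16plex LC-MS/MS with channel sums equalised.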

[1] = compound: C1=CC(=CC=C1C2=NC3=C(N2)C=C(C=C3)C(=O)N)OC4=CC=C(C=C4)Cl
How it was run: as §1

[2] = compound: C1=CC2=NC=CN=C2C=C1/C=C/3\C(=O)NC(=O)S3
How it was run: as §1

[3] = compound: C1=CC=C(C=C1)C2=NC(=C(N2)C3=CC=NC=C3)C4=CC(=C(C=C4)Cl)O
How it was run: as §1

IRAK-1-4 Inhibitor I = compound: C1COCCN1CCN2C3=CC=CC=C3N=C2NC(=O)C4=CC(=CC=C4)[N+](=O)[O-] [IRAK-1-4 Inhibitor I]
How it was run: as §1

[4] = compound: C/C(=N\NC(=O)C1=CC(=CC=C1)S(=O)(=O)N2CCOCC2)/C3=C(C=CC(=C3)Cl)O
How it was run: as §1

[5] = compound: C1=CC2=C(C=CC(=C2)/C=C\3/C(=O)NC(=NCC4=CC=CS4)S3)N=C1
How it was run: as §1

[6] = compound: C1=CC=C2C(=C1)C3=NNC4=CC=CC(=C43)C2=O
How it was run: as §1

[7] = compound: C1CCN(C1)C(=O)NC2=CC=CC(=C2)NC3=NC=C(C(=N3)NCCC4=CN=CN4)Br
How it was run: as §1

[8] = compound: C1CN(CCC1(CC2=CC=C(C=C2)Cl)N)C3=NC=NC4=C3C=CN4
How it was run: as §1

Measured: log2 fold change

CEP164 (UniProt Q9UPV0)
inactive: erlotinib -0.049 | [1] -0.151 | [2] 0.004

CDPF1 (UniProt Q6NVV7)
inactive: [3] -0.097 | IRAK-1-4 Inhibitor I 0.001

CENPT (UniProt Q96BT3)
inactive: erlotinib -0.087 | [1] -0.246

CD84 (UniProt Q9UIB8)
inactive: [2] -0.065

CDC42EP2 (UniProt O14613)
inactive: [4] -0.057 | [5] 0.06 | [3] -0.215 | [6] 0.06 | IRAK-1-4 Inhibitor I -0.315

CFL1 (UniProt E9PP50)
inactive: [2] -0.082 | [7] -0.38 | [8] -0.317

CDNF (UniProt Q49AH0)
inactive: [7] 0.026 | [8] -0.028

2 entries drawn at random from the list so far:
CDC42EP2 (UniProt O14613)
inactive: [4] -0.057 | [5] 0.06 | [3] -0.215 | [6] 0.06 | IRAK-1-4 Inhibitor I -0.315

CDNF (UniProt Q49AH0)
inactive: [7] 0.026 | [8] -0.028

(further entries)

CENPV (UniProt Q7Z7K6)
inactive: [4] -0.033 | [5] 0.013 | [2] -0.093 | [3] -0.193 | [6] 0.015 | [7] -0.037 | [8] 0.012 | IRAK-1-4 Inhibitor I 0.013

CERS5 (UniProt Q8N5B7)
inactive: erlotinib -0.022 | [1] -0.01 | [2] 0.011 | [3] -0.043 | [7] -0.1 | [8] -0.023 | IRAK-1-4 Inhibitor I 0.05

CEP68 (UniProt Q76N32)
inactive: erlotinib 0.008 | [1] 0.108 | [7] 0.135 | [8] 0.035

CDKN3 (UniProt Q16667)
inactive: [2] -0.045 | [7] 0.093 | [8] 0.04

CEP63 (UniProt Q96MT8)
inactive: erlotinib 0.263 | [1] 0.221 | [7] 0.013 | [8] -0.013

CDC14A isoform 2 (UniProt Q9UNH5)
inactive: [3] 0.082 | IRAK-1-4 Inhibitor I -0.102

CEP128 (UniProt Q6ZU80)
inactive: [4] -0.069 | [5] 0 | [2] -0.234 | [3] 0.236 | [6] -0.102 | [7] -0.138 | [8] -0.015 | IRAK-1-4 Inhibitor I -0.212

CENPX (UniProt A8MT69)
inactive: [3] -0.001 | IRAK-1-4 Inhibitor I -0.173

CEP104 (UniProt O60308)
inactive: [3] -0.069 | IRAK-1-4 Inhibitor I -0.015

CFLAR (UniProt O15519)
inactive: [4] 0.466 | [5] -0.138 | [3] 0.007 | [6] 0.04 | [7] -0.074 | [8] 0.079 | IRAK-1-4 Inhibitor I -0.032

CDC27 (UniProt G5EA36)
inactive: erlotinib 0 | [1] -0.057 | [2] -0.159 | [3] -0.066 | IRAK-1-4 Inhibitor I -0.05

CEP170B (UniProt Q9Y4F5)
inactive: [4] 0.055 | [5] -0.038 | [6] -0.098 | [7] -0.031 | [8] -0.067

CELSR2 (UniProt Q9HCU4)
inactive: erlotinib -0.2 | [1] -0.174

CENPM (UniProt Q9NSP4)
inactive: erlotinib 0.051 | [1] 0.096 | [2] -0.064 | [3] 0.075 | [7] -0.15 | [8] -0.092 | IRAK-1-4 Inhibitor I -0.006

CEP170 isoform 2 (UniProt Q5SW79)
inactive: [7] -0.383 | [8] -0.111

CD9 (UniProt P21926)
inactive: [4] 0.028 | [5] 0.018 | [6] 0.067 | [7] -0.227 | [8] -0.206

CDC37 (UniProt K7EL68)
inactive: [4] 0.01 | [5] -0.094 | [2] 0.084 | [6] -0.049

CEBPG (UniProt P53567)
inactive: [2] -0.019 | [3] -0.067 | IRAK-1-4 Inhibitor I 0.016

CEP57 (UniProt Q86XR8)
inactive: erlotinib -0.026 | [1] -0.023 | [7] 0.028 | [8] -0.082

CDC6 (UniProt Q99741)
inactive: erlotinib 0.072 | [1] 0.137 | [3] 0.111 | IRAK-1-4 Inhibitor I 0.055
